# These are yes or no findings as the source states them, for the method shown. In cells and extracts the contact can be indirect. Some binding calls cover weakened binding; strength is not graded here.
# Amino acid sequences for entries named in this document (tags omitted).
# UniProt P19474: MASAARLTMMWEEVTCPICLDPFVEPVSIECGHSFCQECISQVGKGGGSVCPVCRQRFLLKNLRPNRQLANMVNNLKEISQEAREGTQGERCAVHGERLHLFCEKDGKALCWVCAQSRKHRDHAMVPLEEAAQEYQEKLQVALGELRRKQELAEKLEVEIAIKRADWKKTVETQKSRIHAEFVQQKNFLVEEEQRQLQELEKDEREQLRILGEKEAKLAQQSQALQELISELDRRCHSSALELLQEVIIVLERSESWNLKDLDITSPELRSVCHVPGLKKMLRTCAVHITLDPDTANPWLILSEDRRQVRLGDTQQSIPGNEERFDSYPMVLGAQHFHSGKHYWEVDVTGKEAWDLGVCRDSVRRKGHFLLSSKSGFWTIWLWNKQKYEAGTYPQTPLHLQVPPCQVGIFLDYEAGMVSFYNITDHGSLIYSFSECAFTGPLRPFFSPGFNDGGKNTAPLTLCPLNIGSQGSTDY
# Biological target: T1, NIMA-related kinase 2 (human (endogenous in ESCC cells)) (UniProt P51955)
# T1 sequence: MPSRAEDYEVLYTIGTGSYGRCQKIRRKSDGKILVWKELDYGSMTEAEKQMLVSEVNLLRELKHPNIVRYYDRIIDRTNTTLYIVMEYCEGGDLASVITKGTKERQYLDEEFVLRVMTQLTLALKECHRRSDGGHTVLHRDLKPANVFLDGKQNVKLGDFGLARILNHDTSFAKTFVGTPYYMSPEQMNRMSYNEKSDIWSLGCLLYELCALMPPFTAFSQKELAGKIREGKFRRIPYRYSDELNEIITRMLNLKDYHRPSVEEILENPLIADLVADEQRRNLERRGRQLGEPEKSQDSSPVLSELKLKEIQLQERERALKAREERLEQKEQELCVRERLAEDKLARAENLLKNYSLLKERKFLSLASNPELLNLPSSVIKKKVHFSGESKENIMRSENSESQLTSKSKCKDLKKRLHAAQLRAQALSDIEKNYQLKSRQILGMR
# Assay: co-IP; ESCC cell lysates (RIPA lysis buffer) incubated with NEK2 or TRIM21 antibody overnight at 4 °C; protein A/G agarose beads 4 h at 4 °C; western blotting; IgG control
substance,measurement,value
tripartite motif-containing protein 21 (from UniProt P19474 1-475),binding,binds
